Assay results reported in article PMC4947980 (Journal of Medicinal Chemistry, 2016).

What was measured:
[1] = Hydrolytic stability at pH 2, 7 and 12; type: physicochemical; details: percent remaining after a 4 h incubation at 37 °C
[2] = Parallel artificial membrane permeability assay; type: in vitro ADME
Plasma stability, mouse = details: 1 μg/mL, 37 °C, parent ion monitored

Which “pH 12 stability” value [1] does the source give for CC1=C(C(=O)O)N2C(=O)[C@@H](NC(=O)[C@H](N)c3ccccc3)[C@H]2SC1 [cephalexin 4, cephalexin, reference compound] here?
Its value is 0.000%.

What about the “PAMPA mean Pe” value [2] of the same compound?
Its value is <0.0001 ^a 10^–6 cm/s.

And the “stability in mouse plasma (time to complete transformation)” value (Plasma stability, mouse)?
The value was “stable”.
